# Results taken from the supplement of paper PMC9135407.
# Several values for one entry are separate records, joined by “and”; a condition that tells them apart may be missing. Equal values may be shown once. Where a name gives a salt, the structure may show the parent alone. ± gives the standard deviation of the averaged measurements. The list shows a part of the results. Plates or batches differ in their baseline, so values are only roughly comparable.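 Primary human stellate myofibroblasts activated in culture; inactivation shown by regained lipid droplets. Readout: fraction of Hoechst-counted cells exceeding a per-plate Bodipy threshold, duplicate wells, each plate with DMSO negative and nortriptyline positive controls. Hits: control-normalized score beyond the plate's top-tenth-percentile nortriptyline wells, or among its three best wells. Final well concentrations unstated.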
# Tested on: primary human hepatic stellate cells (donor 1)
# Assay: percent Bodipy-positive cells; higher = more lipid droplet accumulation
# Settings: 48 h
# [1] = library stock concentration: 10 mM
# [2] = library stock concentration: 3.33 mM
# [3] = library stock concentration: 80 uM
# [4] = library stock concentration: 400 uM
# [5] = library stock concentration: 2 mM
# [6] = library stock concentration: 1 mM
smiles,measurement,setting,value
Fc1ccc([C@@H]2CCNC[C@H]2COc2ccc3c(c2)OCO3)cc1 [Paroxetine HCl],percent Bodipy-positive cells,[1],93.88 ± 0.18%
Nc1nc(O)c2ncn(CCC(CO)CO)c2n1,percent Bodipy-positive cells,[1],8.61 ± 1.7%
Nc1nc(O)c2ncn(CCC(CO)CO)c2n1 [Penciclovir],percent Bodipy-positive cells,[2],11.5 ± 2.7%
same,percent Bodipy-positive cells,library stock concentration: 7.9 mM,5.23 ± 1.6%
same,percent Bodipy-positive cells,[1],31.3 ± 12%
Clc1ccc(Nc2nnc(Cc3ccncc3)c3ccccc23)cc1 [Vatalanib (PTK787) 2HCl],percent Bodipy-positive cells,[2],7.3 ± 1.8%
same,percent Bodipy-positive cells,[1],14.3 ± 1.1%
Clc1ccc(Nc2nnc(Cc3ccncc3)c3ccccc23)cc1 [Vatalanib],percent Bodipy-positive cells,library stock concentration: 5.8 mM,7.19 ± 0.22%
Cn1cc(-c2ccc3nnc(Sc4ccc5ncccc5c4)n3n2)cn1,percent Bodipy-positive cells,[3],9.43 ± 1.4%
same,percent Bodipy-positive cells,[4],10.1 ± 1.8%
same,percent Bodipy-positive cells,[5],8.51 ± 3.3%
same,percent Bodipy-positive cells,[2],7.41 ± 1.6%
same,percent Bodipy-positive cells,[1],17.4% and 7.41%
O=C1NC(=O)/C(=C/c2cccc(C(F)(F)F)c2)S1,percent Bodipy-positive cells,[4],13.2 ± 7%
same,percent Bodipy-positive cells,[5],14.4 ± 0.74%
same,percent Bodipy-positive cells,[2],26.8 ± 0.62%
same,percent Bodipy-positive cells,[1],26% and 31.8%
Cc1cc(O)c2c(c1)C(=O)c1cc(O)cc(O)c1C2=O [Emodin],percent Bodipy-positive cells,[2],7.67 ± 1.6%
same,percent Bodipy-positive cells,[1],11.7% and 27%
COC(=O)c1ccc2c(C(=Nc3ccc(N(C)C(=O)CN4CCN(C)CC4)cc3)c3ccccc3)c(O)[nH]c2c1,percent Bodipy-positive cells,[3],39.7 ± 1.7%
same,percent Bodipy-positive cells,[4],58.1 ± 7.4%
same,percent Bodipy-positive cells,[5],35.5 ± 1.9%
FC(F)(F)c1cccc(-c2noc(-c3cc(-c4ccccc4)c(C(F)(F)F)s3)n2)c1,percent Bodipy-positive cells,[6],8.06 ± 0.8%
same,percent Bodipy-positive cells,[1],9.38 ± 2.1%
CN1CCC(OC(c2ccccc2)c2ccccc2)CC1 [Diphenylpyraline hydrochloride],percent Bodipy-positive cells,,37 ± 4.2%
same,percent Bodipy-positive cells,library stock concentration: 6.3 mM,22 ± 6.2%
same,percent Bodipy-positive cells,[1],38.6 ± 1.1%
CCOC(=O)[C@H](CCc1ccccc1)N[C@@H](C)C(=O)N1Cc2cc(OC)c(OC)cc2C[C@H]1C(=O)O [Moexipril HCl],percent Bodipy-positive cells,[2],8.1 ± 0.34%
same,percent Bodipy-positive cells,[1],16.5 ± 0.92%
CCOC(=O)[C@H](CCc1ccccc1)N[C@@H](C)C(=O)N1Cc2cc(OC)c(OC)cc2C[C@H]1C(=O)O [Moexipril hydrochloride],percent Bodipy-positive cells,[1],5.4 ± 1.1%
O=C(Oc1cccc2cccnc12)c1ccccc1 [Benzoxiquine],percent Bodipy-positive cells,library stock concentration: 8 mM,15.5 ± 10%
C/C=C1\[C@H]2C=C(C)C[C@]1(N)c1ccc(=O)[nH]c1C2 [(-)-Huperzine A],percent Bodipy-positive cells,library stock concentration: 20.6 mM,39.8 ± 11%
C/C=C1\[C@H]2C=C(C)C[C@]1(N)c1ccc(=O)[nH]c1C2,percent Bodipy-positive cells,[1],10.2 ± 3%
CN1CCN(C2CCN(C(=O)Nc3cc(Oc4ccc(NC(=O)C5(C(=O)Nc6ccc(F)cc6)CC5)c(F)c4)ccn3)CC2)CC1 [Golvatinib (E7050)],percent Bodipy-positive cells,[1],97.7 ± 1%
C[N+](C)(C)CCO.[Cl-] [Choline Chloride],percent Bodipy-positive cells,[2],12 ± 4.1%
same,percent Bodipy-positive cells,[1],34.2 ± 0.56%
C[N+](C)(C)CCO.[Cl-] [Choline chloride],percent Bodipy-positive cells,[1],38.1 ± 8.1%
same,percent Bodipy-positive cells,library stock concentration: 14.3 mM,12.8 ± 5.7%
O=c1[nH]cnc2[nH]ncc12 [Allopurinol Sodium],percent Bodipy-positive cells,[2],9.79 ± 4.6%
same,percent Bodipy-positive cells,[1],13.2 ± 1.3%
"Nc1ccc2c3c(cccc13)C(=O)NC2=O [4-Amino-1,8-naphthalimide]",percent Bodipy-positive cells,library stock concentration: 23.6 mM,74.8 ± 1.3%
CCCCC/C=C/C/C=C/CCCCCCCC(=O)O [Linoelaidic Acid],percent Bodipy-positive cells,[6],9.95 ± 0.85%
O=C(O)CSCC(=O)NC1CCSC1=O (centres undefined) [Erdosteine],percent Bodipy-positive cells,[2],5.69 ± 2.2%
same,percent Bodipy-positive cells,[1],13.9 ± 0.24%
O=C(O)CSCC(=O)NC1CCSC1=O (centres undefined),percent Bodipy-positive cells,[1],26.4 ± 4.2%
Cc1cc2c(F)c(Oc3ncnn4cc(OC[C@@H](C)O)c(C)c34)ccc2[nH]1 [Brivanib],percent Bodipy-positive cells,[3],10.6 ± 4.8%
same,percent Bodipy-positive cells,[4],12.9 ± 1.3%
same,percent Bodipy-positive cells,[5],16.6 ± 5.5%
same,percent Bodipy-positive cells,[1],12.2 ± 3.3%
Cc1cc2c(F)c(Oc3ncnn4cc(OC[C@@H](C)O)c(C)c34)ccc2[nH]1,percent Bodipy-positive cells,[2],5.26 ± 1.2%
same,percent Bodipy-positive cells,[1],17.5 ± 0.24%
O=C1C(SCCO)=C(SCCO)C(=O)c2ccccc21,percent Bodipy-positive cells,[1],100%
"CCCCCCCC/C=C\CCCCCCCC(=O)OCC(CO)OC(=O)CCCCCCC/C=C\CCCCCCCC (centres undefined) [1,2-Dioleoyl-glycerol (18:1)]",percent Bodipy-positive cells,[6],6.76 ± 4%
COc1cc(/C=C/C(=O)CC(=O)/C=C/c2ccc(O)c(OC)c2)ccc1O [Curcumin],percent Bodipy-positive cells,[6],6.28 ± 2.8%
same,percent Bodipy-positive cells,[2],13 ± 2.2%
same,percent Bodipy-positive cells,[1],21.4 ± 10%
same,percent Bodipy-positive cells,library stock concentration: 13.6 mM,92.9 ± 2.2%
Cc1cc2nc3c(=O)[nH]c(=O)nc-3n(CC(O)C(O)C(O)COP(=O)(O)O)c2cc1C (centres undefined),percent Bodipy-positive cells,[1],33.7 ± 1.9%
CC(C)CN(C[C@@H](O)[C@H](Cc1ccccc1)NC(=O)O[C@H]1CO[C@H]2OCC[C@H]21)S(=O)(=O)c1ccc(N)cc1 [Darunavir Ethanolate],percent Bodipy-positive cells,[2],9.55 ± 4.7%
same,percent Bodipy-positive cells,[1],17.2 ± 1.9%
CCC(O)/C=C/C=O (centres undefined) [4-hydroxy Hexenal],percent Bodipy-positive cells,[6],15.1 ± 2%
NCC[C@H](O)C(=O)N[C@@H]1C[C@H](N)[C@@H](O[C@H]2O[C@H](CN)[C@@H](O)[C@H](O)[C@H]2O)[C@H](O)[C@H]1O[C@H]1O[C@H](CO)[C@@H](O)[C@H](N)[C@H]1O [Amikacin sulfate],percent Bodipy-positive cells,library stock concentration: 2.6 mM,2.1 ± 0.6%
same,percent Bodipy-positive cells,[1],18.1 ± 5.2%
NCC[C@H](O)C(=O)N[C@@H]1C[C@H](N)[C@@H](O[C@H]2O[C@H](CN)[C@@H](O)[C@H](O)[C@H]2O)[C@H](O)[C@H]1O[C@H]1O[C@H](CO)[C@@H](O)[C@H](N)[C@H]1O [Amikacin hydrate],percent Bodipy-positive cells,,30.9 ± 1.3%

# In a second layout: entries from further up
smiles	measurement	setting	value
O=C1NC(=O)/C(=C/c2cccc(C(F)(F)F)c2)S1	percent Bodipy-positive cells	[5]	14.4 ± 0.74%
C/C=C1\[C@H]2C=C(C)C[C@]1(N)c1ccc(=O)[nH]c1C2 [(-)-Huperzine A]	percent Bodipy-positive cells	library stock concentration: 20.6 mM	39.8 ± 11%
